According to PubChem BioAssay AID1347076 (National Center for Advancing Translational Sciences (NCATS), 2019):
Screen size: about 400,000 compounds; about 13,000 (3.2%) were called active. Inconclusive results, whose numbers are uncertain, are shown with a selection of clear calls. The call rests on the fitted dose curve; in most records, active means well fitted cell-killing curve with a large enough effect; inconclusive means small, poorly fitted or top-dose-only effect, or effect the other way; inactive means flat fitted curve, though single readings scatter. Where the call is inconclusive, the potency comes from a doubtful curve fit.

assay: qHTS assay for MDR1-selective chemotherapeutics: Primary screen using the drug-selected MDR subline cells KB-V1; details: KB-V1 MDR cells viability, CellTiter-Glo, 72 h; activity change, negative = cytotoxicity: at 46.1 µM (top of the series); further: nearly all actives have a fitted effect of over 60% in size
Procedure, shortened: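 KB-V1, DMEM (no phenol red) + 10% FBS; cpd pin-transferred, titration series; 72 h, 37 degrees C; CellTiter-Glo, luminescence. Data normalized, curve-fit.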
On the % scale 0 is the no-effect control and ±100 the full control effect; potency means the concentration at half of the fitted maximal effect.

| SMILES | Potency | activity change, negative = cytotoxicity |
| --- | --- | --- |
| CN(C)S(=O)(=O)c1ccc2nnn(O)c2c1 | inconclusive: 25.9 µM [rising, single point] |  |
| Cc1ccc2nc3c(cc(C(=O)NCC4CCCO4)c(=N)n3C3CCCC3)c(=O)n2c1 (stereo not drawn) | inconclusive: 4.11 µM [cytotoxic, full curve, poor fit] |  |
| COc1ccc(S(=O)(=O)N2CCOCC2)cc1C(=O)NC1CCCCCC1 |  | inactive: 6.15% |
| CCc1ccc(OCC2c3cc(OC)c(OC)cc3CCN2C(=O)c2ccc(S(=O)(=O)N3CCCC3)cc2)cc1 (stereo not drawn) | inconclusive: 29.1 µM [rising, single point] |  |
| COc1ccc(-c2ccc(CN3C(C)C(=O)N(Cc4cn(CCC5OCCCO5)nn4)CCS3(=O)=O)cc2)cc1 (stereo not drawn) | inconclusive: 29.1 µM [rising, partial curve, poor fit] |  |
| COc1ccccc1C1C2=C(CCCC2=O)N(CC(=O)O)C2=C1C(=O)CCC2 | inconclusive: 3.26 µM [rising, full curve, poor fit] |  |
| Nc1nc(NCc2ccccc2)c2[nH]cnc2n1 | inconclusive: 20.6 µM [cytotoxic, single point] |  |
| CC1c2cc3c(cc2CCN1CC(=O)Nc1ccc(S(=O)(=O)N2CCCC2)cc1)OCCCO3 (stereo not drawn) |  | inconclusive: -20.4% |
| CCOP(=O)(OCC)C(NC(=O)c1cccs1)c1ccccc1 (stereo not drawn) | inconclusive: 16.4 µM [rising, single point] |  |
| Cc1ccc(C)c(NC(=S)NNC(=O)c2csc3c2CCCC3)c1 | inconclusive: 35.5 µM [cytotoxic, single point] |  |
| CC(C)c1ccc(NC(=O)CSc2n[nH]c(=O)n2-c2ccc3c(c2)OCCO3)cc1 | inconclusive: 29.1 µM [rising, single point] |  |
| CCOC(=O)c1sc(N)nc1C(C)C | inconclusive: 29.1 µM [rising, single point] |  |
| Cc1ccc(S(=O)(=O)NCCCCCCNS(=O)(=O)c2ccc(C)cc2)cc1 | inconclusive: 23.1 µM [cytotoxic, partial curve] |  |
| O=C1c2oc3ccccc3c(=O)c2C(c2cccnc2)N1Cc1ccco1 (stereo not drawn) | active: 7.31 µM |  |
| CN(C)S(=O)(=O)c1ccc(NC(=O)N2CCN(c3ccccc3)CC2)cc1 | inconclusive: 10.3 µM [rising, partial curve, poor fit] |  |
| O=C(c1ccc(Cn2c(=O)[nH]c3ccccc3c2=O)cc1)N1CCN(c2ccccn2)CC1 |  | inactive: 0% |
| COc1cc(Cn2c3ccc(NC(=O)CCc4cccnc4)cc3c(=O)n2C)ccc1F |  | inactive: 5.39% |
| CC1(C)CC(NC(=O)COc2ccc3c4c(c(=O)oc3c2)CCCC4)CC(C)(C)N1 | inconclusive: 18.4 µM [rising, single point] |  |
| COc1ccccc1-n1cnnc1SCC(=O)N1CCN(C(=O)c2ccco2)CC1 |  | inactive: 16.4% |
| O=C1c2ccccc2C(=O)N1CCCCc1cn(C[C@H]2CC[C@H](Cn3cc(CCCCN4C(=O)c5ccccc5C4=O)nn3)O2)nn1 | inconclusive: 32.6 µM [rising, single point] |  |
| CN(Cc1ccccc1)S(=O)(=O)c1cccc2cccnc12 | active: 20.6 µM |  |
| CCOC(=O)C1CCN(C(=O)c2cc3sc(C)cc3n2C)CC1 | inconclusive: 25.9 µM [rising, single point] |  |
| O=C(CSc1nnc(C2CC2)n1Cc1ccccc1)Nc1cccnc1Cl | inconclusive: 18.4 µM [cytotoxic, single point] |  |

Of the compounds above, eleven contain four or more nitrogen atoms.

| SMILES | Potency | activity change, negative = cytotoxicity |
| --- | --- | --- |
| CN(C)S(=O)(=O)c1ccc2nnn(O)c2c1 | inconclusive: 25.9 µM [rising, single point] |  |
| Cc1ccc2nc3c(cc(C(=O)NCC4CCCO4)c(=N)n3C3CCCC3)c(=O)n2c1 (stereo not drawn) | inconclusive: 4.11 µM [cytotoxic, full curve, poor fit] |  |
| COc1ccc(-c2ccc(CN3C(C)C(=O)N(Cc4cn(CCC5OCCCO5)nn4)CCS3(=O)=O)cc2)cc1 (stereo not drawn) | inconclusive: 29.1 µM [rising, partial curve, poor fit] |  |
| Nc1nc(NCc2ccccc2)c2[nH]cnc2n1 | inconclusive: 20.6 µM [cytotoxic, single point] |  |
| CC(C)c1ccc(NC(=O)CSc2n[nH]c(=O)n2-c2ccc3c(c2)OCCO3)cc1 | inconclusive: 29.1 µM [rising, single point] |  |
| CN(C)S(=O)(=O)c1ccc(NC(=O)N2CCN(c3ccccc3)CC2)cc1 | inconclusive: 10.3 µM [rising, partial curve, poor fit] |  |
| O=C(c1ccc(Cn2c(=O)[nH]c3ccccc3c2=O)cc1)N1CCN(c2ccccn2)CC1 |  | inactive: 0% |
| COc1cc(Cn2c3ccc(NC(=O)CCc4cccnc4)cc3c(=O)n2C)ccc1F |  | inactive: 5.39% |
| COc1ccccc1-n1cnnc1SCC(=O)N1CCN(C(=O)c2ccco2)CC1 |  | inactive: 16.4% |
| O=C1c2ccccc2C(=O)N1CCCCc1cn(C[C@H]2CC[C@H](Cn3cc(CCCCN4C(=O)c5ccccc5C4=O)nn3)O2)nn1 | inconclusive: 32.6 µM [rising, single point] |  |
| O=C(CSc1nnc(C2CC2)n1Cc1ccccc1)Nc1cccnc1Cl | inconclusive: 18.4 µM [cytotoxic, single point] |  |

Continuation.

| SMILES | Potency | activity change, negative = cytotoxicity |
| --- | --- | --- |
| COc1ccccc1-c1ccc([C@@H]2C[C@H]3[C@H](CON3C)CN2C(=O)c2ccco2)cc1 |  | inactive: 23.5% |
| CCN(CC(=O)NCc1cccs1)C(=O)c1ccc(NS(=O)(=O)c2cccc([N+](=O)[O-])c2)cc1 | inconclusive: 18.4 µM [rising, single point] |  |
| O=C(NCc1ccccc1CN1CCCC1)c1ccc(Cl)c(S(=O)(=O)N2CCCC2)c1 |  | inactive: 0.283% |
| CCCN(CC(=O)Nc1ccccc1OC)C(=O)CSC(=S)N1CCCC1 | inconclusive: 29.1 µM [cytotoxic, single point] |  |
| COC(=O)c1ccc(C2C(C#N)=C(C)NC3=C2C(=O)CC(C)(C)C3)cc1 (stereo not drawn) | inconclusive: 25.9 µM [cytotoxic, partial curve, poor fit] |  |
| Cc1ccc(S(=O)(=O)N(C)S(=O)(=O)c2ccc(C)cc2)cc1 |  | inactive: -19.6% |
| COCCn1c(=S)[nH]c2sc3c(c2c1=O)CCC(C)C3 (stereo not drawn) | inconclusive: 20.6 µM [cytotoxic, single point] |  |
| COc1cccc(-c2c(C#N)c(N)nc3c2c(C)nn3-c2ccccc2)c1O |  | inactive: -4.53% |
| COc1ccc(CC(=O)Nc2cccc(SC)c2)cc1 | inconclusive: 18.4 µM [cytotoxic, single point] |  |
| CC1CCN(S(=O)(=O)c2ccc(C(=O)Nc3nnc(-c4ccco4)o3)cc2)CC1 | inconclusive: 5.17 µM [cytotoxic, partial curve] |  |
| CCCCOc1ccc(C(=O)Nc2ccc3c(c2)CCCN3C(=O)c2cccs2)cc1 | inconclusive: 2.59 µM [cytotoxic, full curve] |  |
| CCOC(=O)C1CCC(CN(Cc2ccc(Cl)cc2)S(=O)(=O)c2cccc(Cl)c2C)CC1 (stereo not drawn) |  | inactive: -0.808% |
| CN(Cc1nc2ccccc2[nH]1)Cc1nc(CC2CC2)no1 | inconclusive: 20.6 µM [cytotoxic, single point] |  |
| CCCN(C(=O)CSc1nnc(-c2ccc3c(c2)OCO3)o1)C1CCS(=O)(=O)C1 (stereo not drawn) |  | inactive: -19% |
| O=C(CSc1nc2ccccc2[nH]1)Nc1ccccc1F | inconclusive: 18.4 µM [cytotoxic, partial curve, poor fit] |  |
| CC(C)(C)c1ccc(C(=O)CCCSC2=C(C#N)C(c3ccco3)C3=C(CCCC3=O)N2)cc1 (stereo not drawn) | active: 10.3 µM |  |
| CCOc1ccc(NS(=O)(=O)c2c(C)nc3sc(C)c(C)n3c2=O)cc1 | inconclusive: 16.4 µM [cytotoxic, single point] |  |
| CC(=O)c1ccc(NC(=O)CN(C)CC(=O)Nc2cccc(F)c2)cc1 | inconclusive: 14.6 µM [cytotoxic, single point] |  |
| COc1cc(C=CC(=O)c2ccccc2)cc(OC)c1OC | active: 23.1 µM |  |
| CCN1C(=O)c2ccccc2S(=O)(=O)c2ccc(C(=O)NCc3ccccc3)cc21 |  | inactive: -0.0237% |
| O=C(COC(=O)c1ccccc1Br)Nc1ccc(F)cc1 | inconclusive: 29.1 µM [rising, single point] |  |
| O=C(Nc1ccc2c(c1)OCO2)c1csc([C@H]2C[C@H](O)[C@@H](CO)O2)n1 | inconclusive: 0.0146 µM [rising, full curve] |  |
| O=c1c(-c2ccccc2)c(-c2ccccc2)oc2cc(O)cc(O)c12 |  | inactive: -4.33% |

Entries of single compounds, quoted from the list:
Cc1ccc(S(=O)(=O)NCCCCCCNS(=O)(=O)c2ccc(C)cc2)cc1 as listed: Potency: inconclusive: 23.1 µM [cytotoxic, partial curve]
CCOC(=O)C1CCC(CN(Cc2ccc(Cl)cc2)S(=O)(=O)c2cccc(Cl)c2C)CC1 (stereo not drawn) as listed: activity change, negative = cytotoxicity: inactive: -0.808%

The results go on:

| SMILES | Potency | activity change, negative = cytotoxicity |
| --- | --- | --- |
| COc1ccc(C(CNC(=O)C(CCSC)NC(=O)c2ccccc2Cl)N2CCCC2)cc1 (stereo not drawn) | inconclusive: 29.1 µM [rising, single point] |  |
| CCCS(=O)(=O)c1c(S(=O)(=O)CCC)c2cnccn2c1C(=O)c1ccc(F)cc1 | inconclusive: 20.6 µM [cytotoxic, single point] |  |
| COc1cccc(C(O)c2ncc(-c3cccc(F)c3)[nH]2)c1 (stereo not drawn) |  | inactive: 2.21% |
| Oc1ccc(N=Nc2nccs2)c(O)c1 | inconclusive: 23.1 µM [cytotoxic, partial curve, poor fit] |  |
| Cc1ccnc(NC(=O)c2ccccc2NC(=O)C(C)(C)C)c1 | active: 10.3 µM |  |
| CC(=O)Oc1ccc(/C=C2/Oc3ccccc3C2=O)cc1 | inconclusive: 29.1 µM [cytotoxic, single point] |  |
| N#Cc1cccc(-c2csc(C(O)(c3ccccc3)C(F)(F)F)n2)c1 (stereo not drawn) | inconclusive: 29.1 µM [cytotoxic, single point] |  |
| O=C(NCC(c1ccco1)N1CCN(c2ccccc2F)CC1)OCc1ccccc1 (stereo not drawn) | inconclusive: 23.1 µM [cytotoxic, single point] |  |
| CCOc1ccc2c(c1)C(=NNC(=O)c1ccncc1)c1cc(OCC)ccc1-2 | inconclusive: 1.64 µM [cytotoxic, full curve] |  |
| O=C(CCC1N=C2c3ccccc3N=C(SCC(=O)Nc3cccc(Cl)c3)N2C1=O)NCc1ccco1 (stereo not drawn) |  | inactive: 15% |
| O=C(O)c1ccccc1N/C=C\[N+](=O)[O-] |  | inactive: 8.09% |
| O=S(=O)(c1ccccc1)c1cnn(-c2ccccc2)c1-c1ccc(F)cc1 | inconclusive: 10 µM [cytotoxic, partial curve] |  |
| Cc1cccn2c(=O)c3cc(C(=O)NCCN4CCOCC4)c(=N)n(CCc4ccccc4)c3nc12 | inconclusive: 20.6 µM [cytotoxic, partial curve, poor fit] |  |
| Cc1cc(C)cc(OCC(=O)Nc2cccc3cccnc23)c1 | inconclusive: 16.4 µM [cytotoxic, single point] |  |
| COc1ccc(C(C)=O)cc1 |  | inactive: 2.42% |
| CC1(C)NC(=O)NC2(C)NC(=O)NC(C)(C)C12 (stereo not drawn) | inconclusive: 25.9 µM [rising, partial curve, poor fit] |  |
| Cc1ccc(S(=O)(=O)N2CCN(C(=O)c3ccc(N4CCC(C)CC4)c([N+](=O)[O-])c3)CC2)cc1 | active: 18.4 µM |  |
| CN(C)C(CNC(=O)Cc1ccc([N+](=O)[O-])cc1)c1ccccc1 (stereo not drawn) |  | inactive: -10.5% |
| O=C(NNc1ccccc1Cl)C(O)(c1cccc(C(F)(F)F)c1)c1cccc(C(F)(F)F)c1 | inconclusive: 20.6 µM [cytotoxic, partial curve, poor fit] |  |
| O=C(c1ccc2c(c1)N(Cc1ccc(Cl)cc1)C(=O)c1ccccc1S2(=O)=O)N1CCCC1 |  | inactive: -2.99% |
| CCCn1nnnc1NCc1ccccc1OCc1ccc(F)cc1 | inconclusive: 7.31 µM [cytotoxic, partial curve] |  |
| CCOC(=O)c1ccc(N2C(=O)c3n[nH]c(-c4ccco4)c3C2c2ccc(C(=O)OC)cc2)cc1 (stereo not drawn) | inconclusive: 29.1 µM [cytotoxic, single point] |  |
